Measurements published in publication PMC8748430.
These are yes or no findings as the source states them, for the method shown. Some entries that bind do so weakly or less than the wild type. Sequences can lack the tags named with a protein.

Target: T1, recombinant mouse NPR-C/NPR3 Fc Chimera protein (mouse) (UniProt P70180)
T1 sequence: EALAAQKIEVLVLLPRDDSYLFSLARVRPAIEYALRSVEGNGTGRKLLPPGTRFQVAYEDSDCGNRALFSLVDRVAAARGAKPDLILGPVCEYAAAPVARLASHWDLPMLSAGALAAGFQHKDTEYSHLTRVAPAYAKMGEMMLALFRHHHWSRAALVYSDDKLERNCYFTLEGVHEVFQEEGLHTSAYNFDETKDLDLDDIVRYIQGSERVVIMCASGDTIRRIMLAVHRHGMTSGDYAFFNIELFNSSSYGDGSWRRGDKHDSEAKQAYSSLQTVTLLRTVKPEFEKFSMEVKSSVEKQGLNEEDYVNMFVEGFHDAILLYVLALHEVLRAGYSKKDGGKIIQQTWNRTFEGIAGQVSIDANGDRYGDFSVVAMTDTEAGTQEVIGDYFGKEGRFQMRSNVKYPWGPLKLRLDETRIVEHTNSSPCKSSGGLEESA
Test: ELISA; competition ELISA: wells of a 96-well high-binding plate coated with 100 ng mouse NPR-C Fc chimera, blocked with 1% BSA/PBS; 100 µl of 200 ng/ml Musclin alone or with increasing amounts of CNP, overnight at 4 °C; bound Musclin detected with anti-Musclin antibody and HRP secondary antibody; relative binding from a Musclin standard curve; both purified

- binding: binds
B1: Musclin (ligand, UniProt P61364 26-130)
chain: FSVDLASQEFGTASLQSPPTAREEKSATELSAKLLRLDDLVSLENDVFETKKKRSFSGFGSPLDRLSAGSVEHRGKQRKAVDHSKKRFGIPMDRIGRNRLSSSRG
